Some of the results follow.

Amino acid sequences for entries named in this document (tags omitted). A change or cut given only in a name is not applied to a line headed by its entry.
UniProt O43255: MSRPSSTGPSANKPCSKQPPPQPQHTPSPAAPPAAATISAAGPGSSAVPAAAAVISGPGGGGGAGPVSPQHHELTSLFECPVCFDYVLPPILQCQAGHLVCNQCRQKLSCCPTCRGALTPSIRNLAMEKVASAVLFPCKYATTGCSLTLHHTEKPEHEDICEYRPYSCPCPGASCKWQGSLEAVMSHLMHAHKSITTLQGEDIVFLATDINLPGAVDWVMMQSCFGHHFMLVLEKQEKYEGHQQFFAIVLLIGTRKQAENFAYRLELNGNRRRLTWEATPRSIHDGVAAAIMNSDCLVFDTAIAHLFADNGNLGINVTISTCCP
UniProt Q96T21: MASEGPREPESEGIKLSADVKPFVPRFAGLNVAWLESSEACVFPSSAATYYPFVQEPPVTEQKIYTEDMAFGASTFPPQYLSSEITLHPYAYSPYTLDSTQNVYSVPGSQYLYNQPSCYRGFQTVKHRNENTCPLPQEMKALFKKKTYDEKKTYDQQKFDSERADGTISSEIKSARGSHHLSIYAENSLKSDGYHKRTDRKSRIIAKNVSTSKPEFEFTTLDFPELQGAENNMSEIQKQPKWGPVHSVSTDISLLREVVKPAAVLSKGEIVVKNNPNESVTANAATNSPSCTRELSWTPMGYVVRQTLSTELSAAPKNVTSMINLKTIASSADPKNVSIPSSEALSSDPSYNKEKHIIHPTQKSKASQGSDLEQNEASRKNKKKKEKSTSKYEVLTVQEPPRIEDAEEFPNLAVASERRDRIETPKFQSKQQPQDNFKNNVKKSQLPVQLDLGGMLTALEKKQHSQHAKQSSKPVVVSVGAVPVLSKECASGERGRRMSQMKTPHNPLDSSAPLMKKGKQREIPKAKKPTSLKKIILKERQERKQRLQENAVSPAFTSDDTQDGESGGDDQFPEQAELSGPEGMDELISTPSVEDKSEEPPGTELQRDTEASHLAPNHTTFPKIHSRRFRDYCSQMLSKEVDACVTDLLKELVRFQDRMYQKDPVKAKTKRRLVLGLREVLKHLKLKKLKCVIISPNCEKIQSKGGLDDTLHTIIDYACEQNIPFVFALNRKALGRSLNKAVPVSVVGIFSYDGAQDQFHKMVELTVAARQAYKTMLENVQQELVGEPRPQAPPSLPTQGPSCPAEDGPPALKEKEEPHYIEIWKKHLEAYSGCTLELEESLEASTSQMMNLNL
UniProt Q9NP31, whole entry, looked up: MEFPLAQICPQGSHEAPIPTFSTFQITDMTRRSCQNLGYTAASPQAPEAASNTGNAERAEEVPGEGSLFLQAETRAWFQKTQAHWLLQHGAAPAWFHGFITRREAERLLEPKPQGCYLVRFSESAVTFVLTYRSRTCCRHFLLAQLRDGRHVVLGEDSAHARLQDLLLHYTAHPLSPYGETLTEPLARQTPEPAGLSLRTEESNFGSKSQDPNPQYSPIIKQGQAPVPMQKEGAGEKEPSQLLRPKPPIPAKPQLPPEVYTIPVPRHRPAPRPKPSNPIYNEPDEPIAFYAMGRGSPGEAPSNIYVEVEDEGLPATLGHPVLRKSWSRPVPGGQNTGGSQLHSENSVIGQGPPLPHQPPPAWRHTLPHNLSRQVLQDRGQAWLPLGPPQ
UniProt Q8N196: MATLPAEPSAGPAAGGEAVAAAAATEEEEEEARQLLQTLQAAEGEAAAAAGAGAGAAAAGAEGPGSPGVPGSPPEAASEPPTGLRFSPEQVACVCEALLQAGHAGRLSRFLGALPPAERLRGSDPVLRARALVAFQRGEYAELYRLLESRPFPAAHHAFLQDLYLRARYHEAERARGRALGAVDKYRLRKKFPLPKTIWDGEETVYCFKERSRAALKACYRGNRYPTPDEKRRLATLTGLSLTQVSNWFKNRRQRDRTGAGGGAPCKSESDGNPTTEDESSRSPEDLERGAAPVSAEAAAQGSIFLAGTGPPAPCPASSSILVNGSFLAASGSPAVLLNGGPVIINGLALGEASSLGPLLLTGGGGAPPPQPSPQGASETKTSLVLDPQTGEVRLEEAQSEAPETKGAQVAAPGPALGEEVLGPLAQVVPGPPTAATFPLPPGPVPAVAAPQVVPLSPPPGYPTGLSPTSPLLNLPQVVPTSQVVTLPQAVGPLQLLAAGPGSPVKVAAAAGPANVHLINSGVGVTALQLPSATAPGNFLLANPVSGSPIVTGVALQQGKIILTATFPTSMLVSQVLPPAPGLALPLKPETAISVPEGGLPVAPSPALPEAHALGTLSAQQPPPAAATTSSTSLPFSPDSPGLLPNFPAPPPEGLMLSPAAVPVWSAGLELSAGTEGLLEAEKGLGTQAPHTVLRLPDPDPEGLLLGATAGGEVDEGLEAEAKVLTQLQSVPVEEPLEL
UniProt P55822: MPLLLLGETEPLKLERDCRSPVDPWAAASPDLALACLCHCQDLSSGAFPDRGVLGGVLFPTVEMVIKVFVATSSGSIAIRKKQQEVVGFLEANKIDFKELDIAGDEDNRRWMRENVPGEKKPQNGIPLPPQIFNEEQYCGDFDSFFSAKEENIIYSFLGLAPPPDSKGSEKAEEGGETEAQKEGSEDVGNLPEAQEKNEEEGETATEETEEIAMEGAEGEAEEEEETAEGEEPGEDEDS
UniProt P36952: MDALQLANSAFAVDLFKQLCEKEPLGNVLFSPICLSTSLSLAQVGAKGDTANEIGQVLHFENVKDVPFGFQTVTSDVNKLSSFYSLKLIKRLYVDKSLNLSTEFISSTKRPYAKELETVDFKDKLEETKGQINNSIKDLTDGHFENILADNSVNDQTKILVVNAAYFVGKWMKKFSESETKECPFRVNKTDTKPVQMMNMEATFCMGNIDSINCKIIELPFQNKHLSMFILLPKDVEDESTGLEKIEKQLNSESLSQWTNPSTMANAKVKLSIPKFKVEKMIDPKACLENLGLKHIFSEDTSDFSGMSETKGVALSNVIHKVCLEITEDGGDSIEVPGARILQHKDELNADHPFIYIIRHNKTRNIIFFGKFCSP
UniProt O75635: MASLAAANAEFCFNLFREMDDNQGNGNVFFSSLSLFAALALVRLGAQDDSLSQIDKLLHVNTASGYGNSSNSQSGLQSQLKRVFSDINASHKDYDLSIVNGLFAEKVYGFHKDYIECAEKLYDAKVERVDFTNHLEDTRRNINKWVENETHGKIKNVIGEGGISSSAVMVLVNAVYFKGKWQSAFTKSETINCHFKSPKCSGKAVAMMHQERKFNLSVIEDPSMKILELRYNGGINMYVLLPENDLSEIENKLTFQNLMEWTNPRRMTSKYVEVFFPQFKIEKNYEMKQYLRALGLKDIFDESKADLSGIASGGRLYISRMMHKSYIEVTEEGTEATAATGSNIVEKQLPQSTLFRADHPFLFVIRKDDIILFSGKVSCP
UniProt Q9NTG7: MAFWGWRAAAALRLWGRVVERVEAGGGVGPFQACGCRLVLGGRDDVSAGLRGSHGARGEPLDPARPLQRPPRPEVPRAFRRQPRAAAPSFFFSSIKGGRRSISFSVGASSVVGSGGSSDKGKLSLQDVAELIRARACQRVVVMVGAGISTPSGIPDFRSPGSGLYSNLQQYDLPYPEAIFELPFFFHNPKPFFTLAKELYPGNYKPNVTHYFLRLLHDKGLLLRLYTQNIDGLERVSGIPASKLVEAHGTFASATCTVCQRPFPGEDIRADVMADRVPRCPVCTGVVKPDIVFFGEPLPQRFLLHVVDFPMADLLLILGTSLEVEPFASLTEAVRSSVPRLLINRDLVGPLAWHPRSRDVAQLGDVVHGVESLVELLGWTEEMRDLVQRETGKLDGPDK
UniProt Q99963: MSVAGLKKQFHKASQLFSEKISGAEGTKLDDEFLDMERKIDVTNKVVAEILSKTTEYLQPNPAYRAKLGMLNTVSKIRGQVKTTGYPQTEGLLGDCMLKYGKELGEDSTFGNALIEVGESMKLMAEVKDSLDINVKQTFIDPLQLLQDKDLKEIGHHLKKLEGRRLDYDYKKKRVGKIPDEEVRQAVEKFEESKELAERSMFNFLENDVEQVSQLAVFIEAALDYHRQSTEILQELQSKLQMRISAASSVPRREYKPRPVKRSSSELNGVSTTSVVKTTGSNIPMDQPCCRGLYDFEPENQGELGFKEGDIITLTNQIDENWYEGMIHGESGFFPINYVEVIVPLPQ
UniProt Q8NC51: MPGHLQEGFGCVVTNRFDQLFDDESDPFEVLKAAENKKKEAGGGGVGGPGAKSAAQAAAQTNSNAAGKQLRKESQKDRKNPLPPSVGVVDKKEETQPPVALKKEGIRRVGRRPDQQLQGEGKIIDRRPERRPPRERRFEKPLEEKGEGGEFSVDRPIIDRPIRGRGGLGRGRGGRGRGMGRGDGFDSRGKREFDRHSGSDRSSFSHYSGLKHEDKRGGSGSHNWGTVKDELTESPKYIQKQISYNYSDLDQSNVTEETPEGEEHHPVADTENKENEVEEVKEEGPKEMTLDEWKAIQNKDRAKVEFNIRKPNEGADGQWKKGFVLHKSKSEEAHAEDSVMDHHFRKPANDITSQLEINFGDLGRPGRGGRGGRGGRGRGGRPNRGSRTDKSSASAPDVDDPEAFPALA
UniProt P60059: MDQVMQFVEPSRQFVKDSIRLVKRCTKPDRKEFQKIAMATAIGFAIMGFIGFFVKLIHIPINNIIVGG
UniProt Q86XK3: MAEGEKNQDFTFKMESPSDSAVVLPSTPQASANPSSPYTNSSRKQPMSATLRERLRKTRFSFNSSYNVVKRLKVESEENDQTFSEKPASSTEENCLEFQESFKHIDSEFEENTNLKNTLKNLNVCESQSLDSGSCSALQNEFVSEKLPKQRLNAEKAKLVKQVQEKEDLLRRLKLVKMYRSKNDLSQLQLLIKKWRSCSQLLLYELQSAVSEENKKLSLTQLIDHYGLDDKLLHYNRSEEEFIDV
UniProt Q9ULL8: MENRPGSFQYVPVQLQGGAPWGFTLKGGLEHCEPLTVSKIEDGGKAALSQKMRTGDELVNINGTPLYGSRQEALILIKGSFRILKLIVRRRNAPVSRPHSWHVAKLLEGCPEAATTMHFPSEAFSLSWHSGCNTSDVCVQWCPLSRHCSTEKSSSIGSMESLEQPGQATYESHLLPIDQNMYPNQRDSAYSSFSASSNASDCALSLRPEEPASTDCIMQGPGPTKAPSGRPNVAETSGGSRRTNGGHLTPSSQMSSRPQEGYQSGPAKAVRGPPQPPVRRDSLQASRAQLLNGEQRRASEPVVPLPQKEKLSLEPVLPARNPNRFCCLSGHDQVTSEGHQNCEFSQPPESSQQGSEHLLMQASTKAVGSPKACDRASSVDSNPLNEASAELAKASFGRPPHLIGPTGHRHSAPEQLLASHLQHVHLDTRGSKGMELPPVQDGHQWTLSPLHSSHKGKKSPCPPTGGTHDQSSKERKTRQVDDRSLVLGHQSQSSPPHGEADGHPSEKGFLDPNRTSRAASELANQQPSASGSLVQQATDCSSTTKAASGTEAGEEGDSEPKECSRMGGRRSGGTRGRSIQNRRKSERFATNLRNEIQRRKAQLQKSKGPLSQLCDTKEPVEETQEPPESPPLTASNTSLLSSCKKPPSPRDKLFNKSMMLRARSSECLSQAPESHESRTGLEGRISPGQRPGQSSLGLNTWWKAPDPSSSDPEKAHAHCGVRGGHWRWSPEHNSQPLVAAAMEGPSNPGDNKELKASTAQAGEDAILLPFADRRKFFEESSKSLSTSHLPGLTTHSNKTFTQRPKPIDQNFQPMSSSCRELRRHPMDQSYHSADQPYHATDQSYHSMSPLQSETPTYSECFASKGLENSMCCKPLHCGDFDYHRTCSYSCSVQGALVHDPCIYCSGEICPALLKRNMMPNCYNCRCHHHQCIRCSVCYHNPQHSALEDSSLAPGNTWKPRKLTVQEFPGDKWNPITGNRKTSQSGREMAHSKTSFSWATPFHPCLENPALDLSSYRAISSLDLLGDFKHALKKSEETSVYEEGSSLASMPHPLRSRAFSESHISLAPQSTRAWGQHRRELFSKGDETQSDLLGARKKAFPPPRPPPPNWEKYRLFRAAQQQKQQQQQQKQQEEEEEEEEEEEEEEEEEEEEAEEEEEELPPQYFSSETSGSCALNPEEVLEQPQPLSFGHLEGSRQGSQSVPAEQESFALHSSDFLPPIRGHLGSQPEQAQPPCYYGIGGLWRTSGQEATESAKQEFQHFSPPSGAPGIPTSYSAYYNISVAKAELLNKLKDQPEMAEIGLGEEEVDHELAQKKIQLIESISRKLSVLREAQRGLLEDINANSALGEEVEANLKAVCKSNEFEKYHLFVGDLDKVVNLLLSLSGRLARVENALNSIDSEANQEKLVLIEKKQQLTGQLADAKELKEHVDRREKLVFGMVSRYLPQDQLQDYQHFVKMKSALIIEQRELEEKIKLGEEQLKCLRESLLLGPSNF
UniProt Q8WVK7: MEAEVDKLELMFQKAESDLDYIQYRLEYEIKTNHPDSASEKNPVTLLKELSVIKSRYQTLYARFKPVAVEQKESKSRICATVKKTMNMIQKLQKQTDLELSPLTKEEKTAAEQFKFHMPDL

Compound in the first assay: NC1(c2ccc(-c3nc4ccn5c(=O)[nH]nc5c4cc3-c3ccccc3)cc2)CCC1
In words: log2 fold change, soluble protein after heating vs DMSO (PISA); higher = thermal stabilisation; K562 cells, 10 uM, 30 min; active = over 0.2 and 3.5 SD of the protein, either way, in both replicates (recomputed). The gist of the method:
(§1)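 For each measurement, 10 μM compound was applied for 30 min to K562 cells at 2×10^6 cells/mL. Aliquots were heated for 3 min across 48°C-58°C, pooled, and extracted in PBS with 0.5% NP-40 at 4°C; the supernatant after 21,000xg for 90 min was soluble protein. This was quantified by TMTpro 16plex LC-MS/MS with channel sums equalised, and thermal stability was reported relative to control samples from duplicates, on a log2 fold-change scale.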
For SIAH2 (UniProt O43255), the log2 fold change was inactive: 0.363.

For the target SECISBP2 (UniProt Q96T21), the log2 fold change is inactive: 0.555.

As to SH2D2A isoform 2 (UniProt Q9NP31), the log2 fold change is inactive: -0.041.

As to SKAP2 (UniProt O75563), the log2 fold change was inactive: 0.043.

In the case of SIX5 (UniProt Q8N196), the log2 fold change is inactive: -0.033.

Consider SFXN1 (UniProt D6RDG7), for which the log2 fold change was inactive: 0.135.

For the target SEMG1 (UniProt P04279), the log2 fold change is inactive: 2.9.

As to SH3BGR (UniProt P55822), the log2 fold change is inactive: -0.143.

As to SERPIND1 (UniProt P05546), the log2 fold change is inactive: 0.119.

As for SERPINB5 (UniProt P36952), the log2 fold change is inactive: -0.007.

For SEPTIN7 isoform 2 (UniProt Q16181), the log2 fold change is inactive: 0.234.

SERPINB7 (UniProt O75635): the log2 fold change is inactive: 0.002.

Turning to SIRT3 (UniProt Q9NTG7), the log2 fold change was inactive: -0.017.

Consider SH3GL3 isoform 3 (UniProt Q99963), for which the log2 fold change was inactive: 0.08.

As to SERBP1 isoform 3 (UniProt Q8NC51), the log2 fold change was inactive: 0.068.

Regarding SIK2 (UniProt Q9H0K1), the log2 fold change is inactive: -0.365.

As for SF1 (UniProt H7C0N4), the log2 fold change is inactive: 0.09.

Consider SERAC1 (UniProt Q96JX3), for which the log2 fold change was inactive: -0.176.

For the target SELENOP (UniProt P49908), the log2 fold change is inactive: -0.047.

Consider SEC61G (UniProt P60059), for which the log2 fold change is inactive: 0.043.

With SERPINB6, A0A2R8Y7E5, the log2 fold change was inactive: -0.176.

SFR1 isoform 2 (UniProt Q86XK3): the log2 fold change was inactive: -0.129.

On to SHROOM4 (UniProt Q9ULL8), for which the log2 fold change was inactive: -0.059.

Compound in another assay: NCC(=O)Nc1ccc(-n2nc(C(F)(F)F)cc2-c2ccc3c(ccc4ccccc43)c2)cc1
Described as above. The gist of the method:
as §1
Consider SEMA7A (UniProt O75326), for which the log2 fold change is inactive: 0.112.

With SECISBP2L (UniProt Q93073), the log2 fold change is inactive: 0.13.

Regarding SIAH2 (UniProt O43255), the log2 fold change is inactive: 0.002.

With SEPTIN2 (UniProt B5MCX3), the log2 fold change was inactive: -0.33.

Turning to SH2B1 (UniProt Q9NRF2), the log2 fold change was inactive: -0.071.

For the target SERPINB5 (UniProt P36952), the log2 fold change was inactive: -0.66.

As to SERPINB7 (UniProt O75635), the log2 fold change was inactive: -0.155.

As to SIRT3 (UniProt Q9NTG7), the log2 fold change is inactive: -0.011.

In the case of SH3GL3 isoform 3 (UniProt Q99963), the log2 fold change is inactive: 0.081.

With SHQ1 (UniProt Q6PI26), the log2 fold change is inactive: 0.161.

As to SF1 (UniProt H7C0N4), the log2 fold change was inactive: 0.026.

As to SERPINB6, A0A2R8Y7E5, the log2 fold change is inactive: -0.329.

For the target SH2D3A (UniProt Q9BRG2), the log2 fold change was inactive: 0.049.

Take SFR1 isoform 2 (UniProt Q86XK3): the log2 fold change is inactive: -0.137.

For the target SHROOM4 (UniProt Q9ULL8), the log2 fold change was inactive: 0.124.

Compound in a further assay: Nc1ccccc1NC(=O)c1ccc(CNC(=O)OCc2cccnc2)cc1 [entinostat]
The description is as above. The gist of the method:
as §1
Regarding SHANK2 isoform 3 (UniProt Q9UPX8), the log2 fold change was inactive: -0.027.

Consider SERPINB5 (UniProt P36952), for which the log2 fold change was inactive: 0.101.

Consider SH3GL3 isoform 3 (UniProt Q99963), for which the log2 fold change is inactive: -0.033.

As for SINHCAF (UniProt Q9NP50), the log2 fold change is inactive: -0.076.

With SELENOP (UniProt P49908), the log2 fold change was inactive: -0.06.

As for SEC61G (UniProt P60059), the log2 fold change was inactive: 0.239.

In the case of SFR1 isoform 2 (UniProt Q86XK3), the log2 fold change is inactive: -0.141.

Compound in a further assay: O=C(CCCCCCC(=O)Nc1ccccc1)NO [vorinostat]
The assay is described as above. The gist of the method: as §1
SEMA7A (UniProt O75326): the log2 fold change is inactive: 0.191.

As to SECISBP2 (UniProt Q96T21), the log2 fold change is inactive: 0.099.

Turning to SH2D2A isoform 2 (UniProt Q9NP31), the log2 fold change was inactive: -0.101.

For the target SIX5 (UniProt Q8N196), the log2 fold change was inactive: 0.007.

Turning to SKA2 (UniProt Q8WVK7), the log2 fold change was inactive: 0.031.

SETD2 (UniProt Q9BYW2): the log2 fold change is inactive: 0.255.

For SH3BGR (UniProt P55822), the log2 fold change is inactive: 0.228.

With SIGIRR (UniProt H0YDR5), the log2 fold change is inactive: -0.094.

In the case of SERPIND1 (UniProt P05546), the log2 fold change was inactive: 0.39.

In the case of SERPINB7 (UniProt O75635), the log2 fold change was inactive: 0.203.

With SIRT3 (UniProt Q9NTG7), the log2 fold change is inactive: -0.063.

SERBP1 isoform 3 (UniProt Q8NC51): the log2 fold change is inactive: 0.01.

For the target SHROOM4 (UniProt Q9ULL8), the log2 fold change is inactive: -0.128.

Compound in the next assay: O=C(CCCCCCNC(=O)c1cnc(N(c2ccccc2)c2ccccc2Cl)nc1)NO [citarinostat]
The description is as above. The gist of the method:
as §1
Consider SERPINA3 (UniProt P01011), for which the log2 fold change is inactive: -0.035.

As for SIAH2 (UniProt O43255), the log2 fold change is inactive: 0.051.

Take SH2D2A isoform 2 (UniProt Q9NP31): the log2 fold change was inactive: 0.07.

For SIX5 (UniProt Q8N196), the log2 fold change was inactive: -0.025.

For SEPTIN2 (UniProt B5MCX3), the log2 fold change was inactive: -0.226.

Consider SH3BGR (UniProt P55822), for which the log2 fold change is inactive: 0.046.

On to SIGIRR (UniProt H0YDR5), for which the log2 fold change is inactive: 0.

As to SERPINB5 (UniProt P36952), the log2 fold change was inactive: -0.184.

As to SERPINB7 (UniProt O75635), the log2 fold change was inactive: -0.107.

For the target SIRT3 (UniProt Q9NTG7), the log2 fold change was inactive: -0.073.

Consider SH3GL3 isoform 3 (UniProt Q99963), for which the log2 fold change was inactive: 0.212.

In the case of SERBP1 isoform 3 (UniProt Q8NC51), the log2 fold change is inactive: -0.027.

As for SIK2 (UniProt Q9H0K1), the log2 fold change was inactive: 0.106.

SF1 (UniProt H7C0N4): the log2 fold change was inactive: -0.049.

Regarding SERPING1 isoform 3 (UniProt P05155), the log2 fold change is inactive: -0.205.

As to SERAC1 (UniProt Q96JX3), the log2 fold change is inactive: 0.04.

With SEC61G (UniProt P60059), the log2 fold change is inactive: 0.1.

Values taken from the supplement of paper PMC10849652.
